Reference: patent publication US20220306730A1
No constants are given. Whether binding was seen depends on the method and setting. Binding seen in cells or lysates may run through a third protein. Some results given as binding are weak or reduced against the parent protein; the word gives no strength.

Sequences of proteins named here, by UniProt entry; tags and fusion partners are left off.
UniProt Q5VTR2: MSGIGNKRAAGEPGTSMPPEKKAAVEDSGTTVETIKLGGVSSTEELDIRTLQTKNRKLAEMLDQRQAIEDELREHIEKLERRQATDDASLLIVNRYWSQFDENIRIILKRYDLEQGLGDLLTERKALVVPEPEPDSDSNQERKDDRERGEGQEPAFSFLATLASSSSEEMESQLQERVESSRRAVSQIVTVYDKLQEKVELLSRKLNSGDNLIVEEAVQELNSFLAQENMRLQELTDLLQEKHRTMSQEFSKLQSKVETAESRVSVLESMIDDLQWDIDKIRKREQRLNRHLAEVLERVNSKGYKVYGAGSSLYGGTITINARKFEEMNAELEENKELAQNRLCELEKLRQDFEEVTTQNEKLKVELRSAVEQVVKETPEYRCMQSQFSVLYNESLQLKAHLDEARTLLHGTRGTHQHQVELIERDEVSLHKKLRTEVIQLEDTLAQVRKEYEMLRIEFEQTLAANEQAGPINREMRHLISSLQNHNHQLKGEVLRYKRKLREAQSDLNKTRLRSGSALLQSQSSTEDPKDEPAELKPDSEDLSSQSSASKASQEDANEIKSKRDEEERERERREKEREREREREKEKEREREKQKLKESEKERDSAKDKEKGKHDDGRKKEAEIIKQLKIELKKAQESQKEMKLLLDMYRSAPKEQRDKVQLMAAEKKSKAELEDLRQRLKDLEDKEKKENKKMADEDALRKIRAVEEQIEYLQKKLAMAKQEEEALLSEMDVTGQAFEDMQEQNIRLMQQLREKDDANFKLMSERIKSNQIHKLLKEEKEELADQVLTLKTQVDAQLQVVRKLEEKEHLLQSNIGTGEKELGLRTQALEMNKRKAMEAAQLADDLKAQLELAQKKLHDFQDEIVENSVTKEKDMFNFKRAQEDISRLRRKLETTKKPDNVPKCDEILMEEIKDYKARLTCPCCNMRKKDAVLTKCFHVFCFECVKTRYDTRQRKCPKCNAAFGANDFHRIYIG

Molecular target: E3 ubiquitin ligase RNF20 (human) (UniProt Q5VTR2)
Assay: co-immunoprecipitation (figure legend only; no method described)

binding: binds
B1: Zinc finger and SCAN domain containing 4 (ZSCAN4) (protein, human, UniProt Q8NAM6 1-433, looked up)
chain: MALDLRTIFQCEPSENNLGSENSAFQQSQGPAVQREEGISEFSRMVLNSFQDSNNSYARQELQRLYRIFHSWLQPEKHSKDEIISLLVLEQFMIGGHCNDKASVKEKWKSSGKNLERFIEDLTDDSINPPALVHVHMQGQEALFSEDMPLRDVIVHLTKQVNAQTTREANMGTPSQTSQDTSLETGQGYEDEQDGWNSSSKTTRVNENITNQGNQIVSLIIIQEENGPRPEEGGVSSDNPYNSKRAELVTARSQEGSINGITFQGVPMVMGAGCISQPEQSSPESALTHQSNEGNSTCEVHQKGSHGVQKSYKCEECPKVFKYLCHLLAHQRRHRNERPFVCPECQKGFFQISDLRVHQIIHTGKKPFTCSMCKKSFSHKTNLRSHERIHTGEKPYTCPFCKTSYRQSSTYHRHMRTHEKITLPSVPSTPEAS
